Data as given in patent publication US20200323863A1.
No constants are given. Whether binding was seen depends on the method and setting. In cells and extracts the contact can be indirect. Some entries that bind do so weakly or less than the wild type. Tags and fused reporters may be left off the sequences shown.

B1: HA-MOB1 (wildtype HA-tagged MOB1, from pcDNA3-HA-MOB1 or pLENTi-HA-MOB1) (protein, UniProt Q9H8S9 1-216, looked up, not shown: small tags and cut ends)
chain: MSFLFSSRSSKTFKPKKNIPEGSHQYELLKHAEATLGSGNLRQAVMLPEGEDLNEWIAVNTVDFFNQINMLYGTITEFCTEASCPVMSAGPRYEYHWADGTNIKKPIKCSAPKYIDYLMTWVQDQLDDETLFPSKIGVPFPKNFMSVAKTILKRLFRVYAHIYHQHFDSVMQLQEEAHLNTSFKHFIFFVQEFNLIDRRELAPLQELIEKLGSKDR
B2: HA-Y26F-MOB1 (mutant HA-tagged MOB1 with Y26F) (protein, UniProt Q9H8S9 1-216, looked up, not shown: small tags and cut ends)
chain: MSFLFSSRSSKTFKPKKNIPEGSHQFELLKHAEATLGSGNLRQAVMLPEGEDLNEWIAVNTVDFFNQINMLYGTITEFCTEASCPVMSAGPRYEYHWADGTNIKKPIKCSAPKYIDYLMTWVQDQLDDETLFPSKIGVPFPKNFMSVAKTILKRLFRVYAHIYHQHFDSVMQLQEEAHLNTSFKHFIFFVQEFNLIDRRELAPLQELIEKLGSKDR

Columns and labels:
[1] = molecular target: T1, LATS1 (Large Tumor Suppressor Kinase 1) (UniProt O95835); assay: co-immunoprecipitation (HA IP, immunoblot), HEK293 cells with or without FAK
T1 sequence (looked up): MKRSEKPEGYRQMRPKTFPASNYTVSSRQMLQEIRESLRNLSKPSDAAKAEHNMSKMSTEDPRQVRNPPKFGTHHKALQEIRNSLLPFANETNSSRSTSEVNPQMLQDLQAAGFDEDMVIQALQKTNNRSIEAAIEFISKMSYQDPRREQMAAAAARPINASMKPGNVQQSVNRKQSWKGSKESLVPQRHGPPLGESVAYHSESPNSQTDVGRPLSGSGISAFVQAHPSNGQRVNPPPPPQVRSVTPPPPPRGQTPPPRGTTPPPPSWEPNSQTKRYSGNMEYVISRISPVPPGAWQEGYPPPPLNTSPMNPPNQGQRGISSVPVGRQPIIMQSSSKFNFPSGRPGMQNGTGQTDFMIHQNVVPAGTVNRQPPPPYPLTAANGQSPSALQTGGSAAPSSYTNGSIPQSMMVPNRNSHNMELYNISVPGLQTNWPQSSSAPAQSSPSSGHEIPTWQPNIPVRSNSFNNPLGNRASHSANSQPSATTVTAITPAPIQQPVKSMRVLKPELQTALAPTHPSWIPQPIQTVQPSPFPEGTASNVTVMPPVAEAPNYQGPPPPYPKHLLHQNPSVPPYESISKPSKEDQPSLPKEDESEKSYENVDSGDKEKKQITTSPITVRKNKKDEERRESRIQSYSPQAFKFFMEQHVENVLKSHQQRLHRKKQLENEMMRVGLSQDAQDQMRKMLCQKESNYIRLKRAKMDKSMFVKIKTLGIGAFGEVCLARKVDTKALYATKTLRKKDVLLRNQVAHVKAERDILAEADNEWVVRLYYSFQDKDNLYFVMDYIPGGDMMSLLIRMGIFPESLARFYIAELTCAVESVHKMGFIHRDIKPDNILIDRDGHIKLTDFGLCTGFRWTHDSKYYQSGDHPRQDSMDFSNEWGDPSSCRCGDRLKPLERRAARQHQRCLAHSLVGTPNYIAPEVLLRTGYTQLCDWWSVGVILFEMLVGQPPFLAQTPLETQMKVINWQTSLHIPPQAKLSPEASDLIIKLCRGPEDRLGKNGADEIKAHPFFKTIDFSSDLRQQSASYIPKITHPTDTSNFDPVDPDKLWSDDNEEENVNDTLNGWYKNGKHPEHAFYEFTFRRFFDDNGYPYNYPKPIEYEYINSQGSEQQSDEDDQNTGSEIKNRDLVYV

[2] = molecular target: T1, LATS1 (Large Tumor Suppressor Kinase 1); assay: co-immunoprecipitation (HA or pY IP, immunoblot), OMM1.3 cells with HA-MOB1, treated with FAK inhibitor VS-4718
[3] = molecular target: T1, LATS1 (Large Tumor Suppressor Kinase 1); assay: co-immunoprecipitation (HA IP, immunoblot), OMM1.3 cells with or without VS-4718

Binder | binding [1] | binding [2] | binding [3]
B1 | binds | binds | –
B2 | binds | – | binds
